# Results from one PubChem assay

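Living-cell ATP in ovarian and cervical tumor lines is read as light output two days after treatment, as a measure of cell killing.
Each compound was tested at five concentrations, including 0.46, 2.3 and 57.5 µM as the top dose.
The number is the fitted AC50 potency, and a lower value means stronger cell killing.
Calls follow an activity score built from curve class and fitted AC50: 40 to 100 is active, 1 to 39 is inconclusive, and 0 is inactive.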

Values are in nM.
Every entry below has the call inconclusive.
These entries are mostly ones the record files as inconclusive; other results of the assay are not listed here.
A potency from a partial, single-point or poor curve is only a rough figure.
The first word of each remark tells which way the curve ran; it can be opposite to the aim of the assay.
Activity scores are not listed here.

structure | condition | Potency (nM) | curve
O=[N+]([O-])c1cc([N+](=O)[O-])c2ccccc2c1 | C33A | 44668 | rising, partial curve, poor fit
O=[N+]([O-])c1cc([N+](=O)[O-])c2ccccc2c1 | HeLa | 25118 | cytotoxic, partial curve, poor fit
CCOC(=O)C(CCc1ccccc1)NC(C)C(=O)N1C(=O)N(C)CC1C(=O)O (stereo not given) | CAOV3 | 39810 | rising, single point
CCOC(=O)C(CCc1ccccc1)NC(C)C(=O)N1C(=O)N(C)CC1C(=O)O (stereo not given) | PA-1 | 1000 | rising, partial curve, poor fit
CC(C)C(=O)O[C@H]1[C@@H]2[C@H](C)C(=O)O[C@@H]2C[C@@H](C)[C@@H]2C=CC(=O)[C@]21C | CASKI | 31622 | cytotoxic, single point
CC(C)C(=O)O[C@H]1[C@@H]2[C@H](C)C(=O)O[C@@H]2C[C@@H](C)[C@@H]2C=CC(=O)[C@]21C | OV90 | 14125 | cytotoxic, single point
CC(C)C(=O)O[C@H]1[C@@H]2[C@H](C)C(=O)O[C@@H]2C[C@@H](C)[C@@H]2C=CC(=O)[C@]21C | Es-2 | 28183 | cytotoxic, single point
CC(C)C(=O)O[C@H]1[C@@H]2[C@H](C)C(=O)O[C@@H]2C[C@@H](C)[C@@H]2C=CC(=O)[C@]21C | HeLa | 11220 | cytotoxic, partial curve, poor fit
CC(C)C(=O)O[C@H]1[C@@H]2[C@H](C)C(=O)O[C@@H]2C[C@@H](C)[C@@H]2C=CC(=O)[C@]21C | C33A | 1995 | -
CC(=O)O[C@H]1C[C@@](O)(C(C)C)C2[C@@H](OC(=O)c3ccc(O)cc3)C[C@@]3(C)O[C@H]3C[C@]21C (stereo not given in full) | SKOV3 | 3981 | rising, single point
CCOC(=O)c1cnn(-c2ccc(NC(=O)C(Cl)=C(Cl)Cl)cc2)c1C(F)(F)F | CASKI | 31622 | cytotoxic, single point
CCOC(=O)c1cnn(-c2ccc(NC(=O)C(Cl)=C(Cl)Cl)cc2)c1C(F)(F)F | C33A | 39810 | cytotoxic, single point
CCOC(=O)c1cnn(-c2ccc(NC(=O)C(Cl)=C(Cl)Cl)cc2)c1C(F)(F)F | JEG-3 | 35481 | cytotoxic, single point
CCOC(=O)c1cnn(-c2ccc(NC(=O)C(Cl)=C(Cl)Cl)cc2)c1C(F)(F)F | OV90 | 35481 | cytotoxic, single point
CCOC(=O)c1cnn(-c2ccc(NC(=O)C(Cl)=C(Cl)Cl)cc2)c1C(F)(F)F | Tov-21-G | 28183 | cytotoxic, single point
CCOC(=O)c1cnn(-c2ccc(NC(=O)C(Cl)=C(Cl)Cl)cc2)c1C(F)(F)F | SKOV3 | 39810 | cytotoxic, single point
CCOC(=O)c1cnn(-c2ccc(NC(=O)C(Cl)=C(Cl)Cl)cc2)c1C(F)(F)F | PA-1 | 31622 | cytotoxic, single point
CCCC(O)C(CC)CO (stereo not given) | PA-1 | 35481 | rising, partial curve, poor fit
CC1=CC(=O)[C@@H](O)[C@@]2(C)C1C[C@H]1OC(=O)[C@H](O)[C@@]3(O)[C@@H](C)[C@@H](O)[C@H](O)C2[C@@]13C (stereo not given in full) | C33A | 15848 | cytotoxic, partial curve, poor fit
CC1=CC(=O)[C@@H](O)[C@@]2(C)C1C[C@H]1OC(=O)[C@H](O)[C@@]3(O)[C@@H](C)[C@@H](O)[C@H](O)C2[C@@]13C (stereo not given in full) | OV90 | 5012 | cytotoxic, partial curve
CC1=CC(=O)[C@@H](O)[C@@]2(C)C1C[C@H]1OC(=O)[C@H](O)[C@@]3(O)[C@@H](C)[C@@H](O)[C@H](O)C2[C@@]13C (stereo not given in full) | Es-2 | 5623 | cytotoxic, partial curve, poor fit
CC1=CC(=O)[C@@H](O)[C@@]2(C)C1C[C@H]1OC(=O)[C@H](O)[C@@]3(O)[C@@H](C)[C@@H](O)[C@H](O)C2[C@@]13C (stereo not given in full) | HeLa | 5012 | cytotoxic, single point
CC1=CC(=O)[C@@H](O)[C@@]2(C)C1C[C@H]1OC(=O)[C@H](O)[C@@]3(O)[C@@H](C)[C@@H](O)[C@H](O)C2[C@@]13C (stereo not given in full) | Hek293T; control line for the selectivity index | 4467 | cytotoxic, partial curve
CC1=CC(=O)[C@@H](O)[C@@]2(C)C1C[C@H]1OC(=O)[C@H](O)[C@@]3(O)[C@@H](C)[C@@H](O)[C@H](O)C2[C@@]13C (stereo not given in full) | CAOV3 | 10000 | cytotoxic, partial curve, poor fit
COC[C@]12CN(C)C3C4[C@H](OC)[C@H]1C3(C(OC)C[C@H]2O)[C@H]1C[C@@]2(O)[C@H](OC(=O)c3ccccc3)[C@@H]1[C@]4(O)[C@@H](O)[C@@H]2OC (stereo not given in full) | OV90 | 35481 | cytotoxic, single point
COC[C@]12CN(C)C3C4[C@H](OC)[C@H]1C3(C(OC)C[C@H]2O)[C@H]1C[C@@]2(O)[C@H](OC(=O)c3ccccc3)[C@@H]1[C@]4(O)[C@@H](O)[C@@H]2OC (stereo not given in full) | HeLa | 39810 | cytotoxic, single point
COC[C@]12CN(C)C3C4[C@H](OC)[C@H]1C3(C(OC)C[C@H]2O)[C@H]1C[C@@]2(O)[C@H](OC(=O)c3ccccc3)[C@@H]1[C@]4(O)[C@@H](O)[C@@H]2OC (stereo not given in full) | CASKI | 39810 | cytotoxic, single point
COC[C@]12CN(C)C3C4[C@H](OC)[C@H]1C3(C(OC)C[C@H]2O)[C@H]1C[C@@]2(O)[C@H](OC(=O)c3ccccc3)[C@@H]1[C@]4(O)[C@@H](O)[C@@H]2OC (stereo not given in full) | Hek293T; control line for the selectivity index | 35481 | cytotoxic, single point
COC[C@]12CN(C)C3C4[C@H](OC)[C@H]1C3(C(OC)C[C@H]2O)[C@H]1C[C@@]2(O)[C@H](OC(=O)c3ccccc3)[C@@H]1[C@]4(O)[C@@H](O)[C@@H]2OC (stereo not given in full) | JEG-3 | 39810 | cytotoxic, single point
COC[C@]12CN(C)C3C4[C@H](OC)[C@H]1C3(C(OC)C[C@H]2O)[C@H]1C[C@@]2(O)[C@H](OC(=O)c3ccccc3)[C@@H]1[C@]4(O)[C@@H](O)[C@@H]2OC (stereo not given in full) | Es-2 | 39810 | cytotoxic, single point
COC[C@]12CN(C)C3C4[C@H](OC)[C@H]1C3(C(OC)C[C@H]2O)[C@H]1C[C@@]2(O)[C@H](OC(=O)c3ccccc3)[C@@H]1[C@]4(O)[C@@H](O)[C@@H]2OC (stereo not given in full) | C33A | 39810 | cytotoxic, single point
CCC(COC(=O)c1cc(OC)c(OC)c(OC)c1)(c1ccccc1)N(C)C (stereo not given) | Hek293T; control line for the selectivity index | 25118 | cytotoxic, single point
CCN(CC)CCOc1ccc(C(O)(Cc2ccc(Cl)cc2)c2ccc(C)cc2)cc1 (stereo not given) | Es-2 | 39810 | cytotoxic, single point
CCN(CC)CCOc1ccc(C(O)(Cc2ccc(Cl)cc2)c2ccc(C)cc2)cc1 (stereo not given) | Tov-21-G | 28183 | cytotoxic, single point
CCN(CC)CCOc1ccc(C(O)(Cc2ccc(Cl)cc2)c2ccc(C)cc2)cc1 (stereo not given) | CASKI | 39810 | cytotoxic, single point
CCN(CC)CCOc1ccc(C(O)(Cc2ccc(Cl)cc2)c2ccc(C)cc2)cc1 (stereo not given) | Tov112D | 39810 | cytotoxic, partial curve, poor fit
CCN(CC)CCOc1ccc(C(O)(Cc2ccc(Cl)cc2)c2ccc(C)cc2)cc1 (stereo not given) | Hek293T; control line for the selectivity index | 39810 | cytotoxic, single point
CCN(CC)CCOc1ccc(C(O)(Cc2ccc(Cl)cc2)c2ccc(C)cc2)cc1 (stereo not given) | C33A | 39810 | cytotoxic, single point
CCN(CC)CCOc1ccc(C(O)(Cc2ccc(Cl)cc2)c2ccc(C)cc2)cc1 (stereo not given) | SKOV3 | 31622 | cytotoxic, single point
CCN(CC)CCOc1ccc(C(O)(Cc2ccc(Cl)cc2)c2ccc(C)cc2)cc1 (stereo not given) | PA-1 | 39810 | cytotoxic, single point
CCN(CC)CCOc1ccc(C(O)(Cc2ccc(Cl)cc2)c2ccc(C)cc2)cc1 (stereo not given) | CAOV3 | 31622 | cytotoxic, single point

Source: PubChem BioAssay AID1345084 (NCATS, 2018).